Paper PMC10266735
No constants are given. Whether binding was seen depends on the method and setting. In cells and extracts the contact can be indirect. Some entries that bind do so weakly or less than the wild type.

Sequences of proteins named here, by UniProt entry; tags and fusion partners are left off. Residues count along the entry.
UniProt Q9Y5R2, residues 156-645: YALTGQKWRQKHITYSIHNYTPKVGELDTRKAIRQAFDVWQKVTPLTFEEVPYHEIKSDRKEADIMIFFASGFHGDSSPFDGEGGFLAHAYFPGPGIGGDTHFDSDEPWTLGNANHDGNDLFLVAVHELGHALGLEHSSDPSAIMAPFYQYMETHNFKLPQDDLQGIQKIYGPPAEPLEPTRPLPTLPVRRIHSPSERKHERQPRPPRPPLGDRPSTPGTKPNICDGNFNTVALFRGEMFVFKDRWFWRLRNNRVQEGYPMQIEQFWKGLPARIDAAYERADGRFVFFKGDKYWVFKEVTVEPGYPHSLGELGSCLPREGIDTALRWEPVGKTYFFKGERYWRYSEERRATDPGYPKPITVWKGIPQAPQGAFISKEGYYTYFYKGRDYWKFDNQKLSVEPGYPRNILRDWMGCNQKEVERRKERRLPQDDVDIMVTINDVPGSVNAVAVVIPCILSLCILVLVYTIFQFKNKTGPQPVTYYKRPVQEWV

Legend:
[1] = target: T1, syndecan-1 (human (endogenous in HUVEC)) (UniProt P18827); assay: co-IP; HUVEC lysate (50 mM tris-HCl pH 7.5, 150 mM NaCl, EDTA, 1% Triton X-100), anti-syndecan-1 antibody and protein A magnetic beads, washed with PBS, immunoblot for membrane MMPs; cells under normoxia or hypoxia-reoxygenation
T1 sequence: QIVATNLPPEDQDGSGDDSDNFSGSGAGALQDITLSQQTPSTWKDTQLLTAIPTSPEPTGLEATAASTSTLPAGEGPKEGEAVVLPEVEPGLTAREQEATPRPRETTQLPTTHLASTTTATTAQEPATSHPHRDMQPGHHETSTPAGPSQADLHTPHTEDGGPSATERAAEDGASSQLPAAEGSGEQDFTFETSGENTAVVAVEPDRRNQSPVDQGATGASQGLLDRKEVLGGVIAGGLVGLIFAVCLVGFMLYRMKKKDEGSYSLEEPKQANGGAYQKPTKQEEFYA

[2] = target: T2, syndecan-1 (in VE-cadherin-positive endothelial extracellular vesicles from plasma) (human (endogenous in plasma extracellular vesicles)) (UniProt P18827); assay: co-IP; VE-cadherin-positive extracellular vesicles from 300 ul plasma of five healthy controls and five hemorrhagic trauma patients, 0.1% Triton X-100, syndecan-1 immunoprecipitation as for cell lysates, immunoblot for MMP24
T2 sequence: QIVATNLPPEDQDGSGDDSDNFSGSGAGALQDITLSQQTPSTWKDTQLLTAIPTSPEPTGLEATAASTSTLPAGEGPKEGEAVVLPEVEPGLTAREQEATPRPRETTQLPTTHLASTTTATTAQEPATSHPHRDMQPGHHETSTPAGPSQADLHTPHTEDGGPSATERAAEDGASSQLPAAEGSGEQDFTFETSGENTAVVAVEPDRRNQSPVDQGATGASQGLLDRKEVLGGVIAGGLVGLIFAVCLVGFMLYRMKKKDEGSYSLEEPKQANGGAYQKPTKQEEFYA

Molecule: matrix metalloproteinase 24 (from UniProt Q9Y5R2 156-645) (enzyme)
- binding [1]: binds

Molecule: matrix metalloproteinase 24 (in VE-cadherin-positive endothelial extracellular vesicles from plasma) (from UniProt Q9Y5R2 156-645) (enzyme)
- binding [2]: binds

B1: matrix metalloproteinase 25 (enzyme, UniProt Q9NPA2 108-539)
chain: YALSGSVWKKRTLTWRVRSFPQSSQLSQETVRVLMSYALMAWGMESGLTFHEVDSPQGQEPDILIDFARAFHQDSYPFDGLGGTLAHAFFPGEHPISGDTHFDDEETWTFGSKDGEGTDLFAVAVHEFGHALGLGHSSAPNSIMRPFYQGPVGDPDKYRLSQDDRDGLQQLYGKAPQTPYDKPTRKPLAPPPQPPASPTHSPSFPIPDRCEGNFDAIANIRGETFFFKGPWFWRLQPSGQLVSPRPARLHRFWEGLPAQVRVVQAAYARHRDGRILLFSGPQFWVFQDRQLEGGARPLTELGLPPGEEVDAVFSWPQNGKTYLVRGRQYWRYDEAAARPDPGYPRDLSLWEGAPPSPDDVTVSNAGDTYFFKGAHYWRFPKNSIKTEPDAPQPMGPNWLDCPAPSSGPRAPRPPKATPVSETCDCQCELNQA
- binding [1]: binds
